Earlier results, collected in patent US20250203808A1, “REFRIGERANTS FOR AND METHODS OF COOLING ELECTRONICS” (HONEYWELL INTERNATIONAL INC., priority 2023, published 2025).
Some entries share one result that the patent states for a list of compounds. At least one compound was matched to its structure with a doubt left.

Details: background, commercial 3M fluids; cited from earlier work

FC(F)(F)C(F)(F)C(F)(F)C(F)(F)C(F)(F)C(F)(F)F [FC-72]
dielectric constant: ≤ 2.0
